# According to PubChem BioAssay AID256 (DTP/NCI, 2004):
# The list shows only some results of the screen, not a fair sample: it gathers tests that were run many times, whatever their T/C, doses with no T/C, and many T/C values between a quarter and a half above the control. Other doses and runs of a compound stand elsewhere. T/C is the treated group as % of the vehicle group. Some entries give survivors of the animals treated and no T/C: the source holds a T/C of zero for them, seemingly a mark for toxic or unscored doses. Some survivor counts are full or nearly so, which does not show that the dose was tolerated: the source hardly ever lists a survival T/C far under the control, and the zero likely stands for such cases as well. Counts of survivors are from the toxicity check (mostly the fifth day) where no day follows; animals may have died later. Schedule codes are those of the source, taken here to give the interval after Q, in days (D) or hours (H), and the number of doses after X. For survival time, the PubChem record calls one and a half times the control and up active, and a quarter to a half above the control has no call in these data; cut-offs in other NCI protocols can differ. Some T/C values carry the count of animals alive at the toxicity check (mostly the fifth day); where none is given, no animal had died by that day.
# Test system: CD2F1 mice, L1210 leukemia ip, survival T/C
# Experiment: NCI In Vivo Anticancer Drug Screen. Data for tumor model L1210 Leukemia (intraperitoneal) in CD2F1 (CDF1) mice
# Details: higher T/C = longer survival
# Summary of the method: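 Activity against a transplanted murine tumor was judged by comparing the compound group with a vehicle group. The outcome in the treated animals was divided by that in the controls.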
# [1] = T/C endpoint: mean survival time, dose: 100.0 mg/kg/injection, schedule: Q01DX009 (ip), vehicle: saline with Tween-80
# [2] = T/C endpoint: mean survival time, dose: 100.0 mg/kg/injection, schedule: Q04DX002 (ip), vehicle: saline with Tween-80
# [3] = T/C endpoint: mean survival time, dose: 200.0 mg/kg/injection, schedule: Q01DX009 (ip), vehicle: saline with Tween-80
# [4] = T/C endpoint: mean survival time, dose: 400.0 mg/kg/injection, schedule: Q01DX009 (ip), vehicle: saline with Tween-80
# [5] = T/C endpoint: mean survival time, dose: 400.0 mg/kg/injection, schedule: Q04DX002 (ip), vehicle: saline with Tween-80
# [6] = T/C endpoint: mean survival time, dose: 400.0 mg/kg/injection, schedule: Q01DX009 (ip), vehicle: saline
# [7] = T/C endpoint: mean survival time, dose: 400.0 mg/kg/injection, schedule: Q01DX001 (ip), vehicle: saline
# [8] = T/C endpoint: mean survival time, dose: 200.0 mg/kg/injection, schedule: Q01DX005 (ip), vehicle: other
# [9] = T/C endpoint: mean survival time, dose: 400.0 mg/kg/injection, schedule: Q04DX003 (ip), vehicle: saline with Tween-80
# [10] = T/C endpoint: mean survival time, dose: 100.0 mg/kg/injection, schedule: Q04DX003 (ip), vehicle: saline with Tween-80
# [11] = T/C endpoint: mean survival time, dose: 200.0 mg/kg/injection, schedule: Q04DX003 (ip), vehicle: saline
structure (smiles),measurement,setting,value
CC(=O)OC(Cc1nc2ccccc2s1)(C(F)(F)F)C(F)(F)F,survivor count,"T/C endpoint: mean survival time, dose: 25.0 mg/kg/injection, schedule: Q04DX002 (ip), vehicle: saline with Tween-80",1 of 3
same,survivor count,"T/C endpoint: mean survival time, dose: 50.0 mg/kg/injection, schedule: Q04DX002 (ip), vehicle: saline with Tween-80",0 of 3
same,survivor count,[1],0 of 6
same,survivor count,[2],0 of 3
same,survivor count,[3],0 of 6
same,survivor count,"T/C endpoint: mean survival time, dose: 200.0 mg/kg/injection, schedule: Q04DX002 (ip), vehicle: saline with Tween-80",0 of 3
same,survivor count,[4],0 of 6
same,survivor count,[5],0 of 3
O=C(O)COc1ccc(Cl)cc1Cl (tested in a mixture with another compound),survivor count,[2],3 of 3
same,survivor count,[5],0 of 3
CCOc1ccc2nc3cc(N)ccc3c(N)c2c1,survivor count,"T/C endpoint: mean survival time, dose: 200.0 mg/kg/injection, schedule: Q01DX009 (ip), vehicle: saline",6 of 6
same,survivor count,[6],2 of 6
Cc1cc2ncn(CC(=O)O)c2cc1C,survivor count,[4],2 of 6
CC(=O)c1ccc[n+](C)c1,survivor count,"T/C endpoint: mean survival time, dose: 400.0 mg/kg/injection, schedule: Q04DX003 (ip), vehicle: saline",1 of 6
CC(Br)C(=O)OC1C=CCCC1 (centres undefined),survivor count,[3],1 of 3
CCC[CH2][Sn]([CH2]CC)([CH2]CCC)[O]C(=O)c1ccccc1,survivor count,"T/C endpoint: mean survival time, dose: 3.13 mg/kg/injection, schedule: Q01DX009 (ip), vehicle: saline with Tween-80",1 of 3
CCOc1ccc(/C=C/[N+](=O)[O-])cc1,survivor count,[4],0 of 6
CC(C)c1cc2ccccc2s1,survivor count,[7],2 of 6
NC1C2C(CC(=O)O)OCC=C3CN4CCC1(C(=O)C(=O)O)C4CC32 (centres undefined),survivor count,"T/C endpoint: mean survival time, dose: 5.0 mg/kg/injection, schedule: Q01DX001 (ip), vehicle: saline",0 of 6
same,survivor count,"T/C endpoint: mean survival time, dose: 10.0 mg/kg/injection, schedule: Q01DX001 (ip), vehicle: saline",0 of 6
same,survivor count,"T/C endpoint: mean survival time, dose: 20.0 mg/kg/injection, schedule: Q01DX001 (ip), vehicle: saline",0 of 6
same,survivor count,"T/C endpoint: mean survival time, dose: 40.0 mg/kg/injection, schedule: Q01DX001 (ip), vehicle: saline",0 of 6
same,survivor count,"T/C endpoint: mean survival time, dose: 75.0 mg/kg/injection, schedule: Q01DX001 (ip), vehicle: saline",0 of 6
same,survivor count,"T/C endpoint: mean survival time, dose: 80.0 mg/kg/injection, schedule: Q01DX001 (ip), vehicle: saline",0 of 6
same,survivor count,"T/C endpoint: mean survival time, dose: 150.0 mg/kg/injection, schedule: Q01DX001 (ip), vehicle: saline",0 of 6
same,survivor count,"T/C endpoint: mean survival time, dose: 300.0 mg/kg/injection, schedule: Q01DX001 (ip), vehicle: saline",0 of 6
CC(=O)CC(C)=NCCN=C(C)CC(C)=O.[Pd],survivor count,"T/C endpoint: mean survival time, dose: 25.0 mg/kg/injection, schedule: Q04DX003 (ip), vehicle: distilled water + Tween-80",2 of 6
same,survivor count,"T/C endpoint: mean survival time, dose: 50.0 mg/kg/injection, schedule: Q04DX003 (ip), vehicle: distilled water + Tween-80",0 of 6
same,survivor count,"T/C endpoint: mean survival time, dose: 100.0 mg/kg/injection, schedule: Q04DX003 (ip), vehicle: distilled water + Tween-80",0 of 6
same,survivor count,"T/C endpoint: mean survival time, dose: 200.0 mg/kg/injection, schedule: Q04DX003 (ip), vehicle: distilled water + Tween-80",0 of 6
Cc1ccc(S(=O)(=O)C2C=CC=CC=C2)cc1,survivor count,[1],5 of 6
same,survivor count,[3],1 of 6
same,survivor count,[4],0 of 6
CCC(NC(N)=O)C(CC)NC(N)=O (centres undefined),survivor count,"T/C endpoint: median survival time, dose: 100.0 mg/kg/injection, schedule: Q01DX009 (ip), vehicle: saline with Tween-80",0 of 6
same,survivor count,"T/C endpoint: median survival time, dose: 200.0 mg/kg/injection, schedule: Q01DX009 (ip), vehicle: saline with Tween-80",0 of 6
O=c1oc2c(ccc3ccccc32)c(O)c1-c1ccccc1,survivor count,[3],0 of 3
CCCc1nc2[nH]cnc(=S)c2[nH]1,survivor count,"T/C endpoint: mean survival time, dose: 100.0 mg/kg/injection, schedule: Q01DX005 (ip), vehicle: other",1 of 6
same,survivor count,[8],2 of 6
Nc1nc(N)c2c(=O)c(CNc3ccc(C(=O)NC(CCC(=O)O)C(=O)O)cc3)c[nH]c2n1 (centres undefined),survivor count,"T/C endpoint: mean survival time, dose: 8.0 mg/kg/injection, schedule: Q01DX005 (ip), vehicle: sodium bicarbonate",6 of 6
[Cl][Pt+2][Cl].[NH-]C(C(=O)O)c1ccccc1.[NH-]C(C(=O)O)c1ccccc1 (centres undefined),survivor count,"T/C endpoint: median survival time, dose: 200.0 mg/kg/injection, schedule: Q04DX003 (ip), vehicle: saline",5 of 6
CC(/C=C/C1OC(=O)C=CC1C)=C\C(C)C/C=C/C(C)=C/C(C)C(=O)C(C)C(O)C(C)C/C(C)=C/C(=O)O (centres undefined),T/C,"T/C endpoint: median survival time, dose: 41.7 micrograms/kg/injection, schedule: Q01DX009 (ip), vehicle: saline + alcohol",131 % of control
same,T/C,"T/C endpoint: median survival time, dose: 69.4 micrograms/kg/injection, schedule: Q01DX009 (ip), vehicle: saline + alcohol",128 % of control
CCCCC(O)CCCCCCCCCC(=O)O (centres undefined),survivor count,[9],6 of 6
CCn1c(=N)sc2ccc(C(=O)OC)cc21,survivor count,[10],3 of 6
same,survivor count,[9],0 of 6
CN(C)C1CCCCC1[N+](C)(C)C (centres undefined),survivor count,[10],0 of 6
same,survivor count,"T/C endpoint: mean survival time, dose: 200.0 mg/kg/injection, schedule: Q04DX003 (ip), vehicle: saline with Tween-80",0 of 6
same,survivor count,[9],0 of 6
O=C(C=C(C(F)(F)F)C(F)(F)F)c1ccccc1Cl,survivor count,"T/C endpoint: mean survival time, dose: 50.0 mg/kg/injection, schedule: Q01DX009 (ip), vehicle: saline with Tween-80",0 of 6
c1ccc2c(CC3=NCCN3)cccc2c1,survivor count,"T/C endpoint: mean survival time, dose: 25.0 mg/kg/injection, schedule: Q04DX003 (ip), vehicle: saline with Tween-80",6 of 6
same,survivor count,"T/C endpoint: mean survival time, dose: 100.0 mg/kg/injection, schedule: Q04DX003 (ip), vehicle: saline",3 of 6
same,survivor count,[11],0 of 6
Cc1cc2cc3n(c2nn1)N=C(Cl)CC3,survivor count,"T/C endpoint: mean survival time, dose: 400.0 mg/kg/injection, schedule: Q04DX002 (ip), vehicle: Klucel (hydroxypropylcellulose) (HPC)",2 of 6 on day 6
same,survivor count,"T/C endpoint: mean survival time, dose: 495.0 mg/kg/injection, schedule: Q04DX002 (ip), vehicle: Klucel (hydroxypropylcellulose) (HPC)",5 of 8 on day 6
same,survivor count,"T/C endpoint: mean survival time, dose: 600.0 mg/kg/injection, schedule: Q04DX002 (ip), vehicle: Klucel (hydroxypropylcellulose) (HPC)",0 of 6 on day 6
CCOC1([N+](=O)[O-])c2ccccc2-c2nc3ccccc3cc21 (centres undefined),survivor count,"T/C endpoint: mean survival time, dose: 100.0 mg/kg/injection, schedule: Q04DX003 (ip), vehicle: Klucel (hydroxypropylcellulose) (HPC)",3 of 6
same,survivor count,"T/C endpoint: mean survival time, dose: 400.0 mg/kg/injection, schedule: Q04DX003 (ip), vehicle: Klucel (hydroxypropylcellulose) (HPC)",2 of 6
CCOC12c3c4cccc3Oc3cccc(c31)S(=O)(=O)c1cccc(c12)O4,survivor count,"T/C endpoint: mean survival time, dose: 400.0 mg/kg/injection, schedule: Q01DX001 (ip), vehicle: saline with Tween-80",6 of 6
CCCCN(CCCC)CCNc1ccc(C)c2sc3ccccc3c(=O)c12,survivor count,[11],6 of 6
C=CCNc1ccc(OC)cc1,survivor count,[9],0 of 6
CCOC(=O)C(C(=O)OCC)C1c2ccccc2C(=O)N(CCN(C)C)c2ccccc21 (centres undefined),survivor count,"T/C endpoint: mean survival time, dose: 200.0 mg/kg/injection, schedule: Q01DX001 (ip), vehicle: saline",0 of 6
same,survivor count,[7],0 of 6
CCCCCCCCOC(=O)c1cc([N+](=O)[O-])c(Sc2ncnc3nc[nH]c23)c([N+](=O)[O-])c1,T/C,"T/C endpoint: mean survival time, dose: 16.5 mg/kg/injection, schedule: Q01DX005 (ip), vehicle: other",140 % of control
same,T/C,"T/C endpoint: mean survival time, dose: 25.0 mg/kg/injection, schedule: Q01DX005 (ip), vehicle: other",149 % of control [5 of 6 alive]
same,T/C,"T/C endpoint: mean survival time, dose: 37.5 mg/kg/injection, schedule: Q01DX005 (ip), vehicle: other",140 % of control
same,survivor count,[8],3 of 3
Nc1nc(N)c(N)c(NC(c2ccccc2)c2ccccc2)n1,survivor count,"T/C endpoint: mean survival time, dose: 150.0 mg/kg/injection, schedule: Q01DX001 (ip), vehicle: other",0 of 6
same,survivor count,"T/C endpoint: mean survival time, dose: 300.0 mg/kg/injection, schedule: Q01DX001 (ip), vehicle: other",0 of 6
COC(=O)C1C2CCC(COC(C)=O)(O2)C1C(=O)O (centres undefined),survivor count,[6],6 of 6
